Results are given in words; binding and its absence hold for the method and conditions named. Some binding calls cover weakened binding; strength is not graded here.

Protein sequences, listed by entry. Tags and fused reporters are not part of them. Lines headed by an entry give the natural chain unless they say otherwise; changes in a name come on top.
UniProt P01024: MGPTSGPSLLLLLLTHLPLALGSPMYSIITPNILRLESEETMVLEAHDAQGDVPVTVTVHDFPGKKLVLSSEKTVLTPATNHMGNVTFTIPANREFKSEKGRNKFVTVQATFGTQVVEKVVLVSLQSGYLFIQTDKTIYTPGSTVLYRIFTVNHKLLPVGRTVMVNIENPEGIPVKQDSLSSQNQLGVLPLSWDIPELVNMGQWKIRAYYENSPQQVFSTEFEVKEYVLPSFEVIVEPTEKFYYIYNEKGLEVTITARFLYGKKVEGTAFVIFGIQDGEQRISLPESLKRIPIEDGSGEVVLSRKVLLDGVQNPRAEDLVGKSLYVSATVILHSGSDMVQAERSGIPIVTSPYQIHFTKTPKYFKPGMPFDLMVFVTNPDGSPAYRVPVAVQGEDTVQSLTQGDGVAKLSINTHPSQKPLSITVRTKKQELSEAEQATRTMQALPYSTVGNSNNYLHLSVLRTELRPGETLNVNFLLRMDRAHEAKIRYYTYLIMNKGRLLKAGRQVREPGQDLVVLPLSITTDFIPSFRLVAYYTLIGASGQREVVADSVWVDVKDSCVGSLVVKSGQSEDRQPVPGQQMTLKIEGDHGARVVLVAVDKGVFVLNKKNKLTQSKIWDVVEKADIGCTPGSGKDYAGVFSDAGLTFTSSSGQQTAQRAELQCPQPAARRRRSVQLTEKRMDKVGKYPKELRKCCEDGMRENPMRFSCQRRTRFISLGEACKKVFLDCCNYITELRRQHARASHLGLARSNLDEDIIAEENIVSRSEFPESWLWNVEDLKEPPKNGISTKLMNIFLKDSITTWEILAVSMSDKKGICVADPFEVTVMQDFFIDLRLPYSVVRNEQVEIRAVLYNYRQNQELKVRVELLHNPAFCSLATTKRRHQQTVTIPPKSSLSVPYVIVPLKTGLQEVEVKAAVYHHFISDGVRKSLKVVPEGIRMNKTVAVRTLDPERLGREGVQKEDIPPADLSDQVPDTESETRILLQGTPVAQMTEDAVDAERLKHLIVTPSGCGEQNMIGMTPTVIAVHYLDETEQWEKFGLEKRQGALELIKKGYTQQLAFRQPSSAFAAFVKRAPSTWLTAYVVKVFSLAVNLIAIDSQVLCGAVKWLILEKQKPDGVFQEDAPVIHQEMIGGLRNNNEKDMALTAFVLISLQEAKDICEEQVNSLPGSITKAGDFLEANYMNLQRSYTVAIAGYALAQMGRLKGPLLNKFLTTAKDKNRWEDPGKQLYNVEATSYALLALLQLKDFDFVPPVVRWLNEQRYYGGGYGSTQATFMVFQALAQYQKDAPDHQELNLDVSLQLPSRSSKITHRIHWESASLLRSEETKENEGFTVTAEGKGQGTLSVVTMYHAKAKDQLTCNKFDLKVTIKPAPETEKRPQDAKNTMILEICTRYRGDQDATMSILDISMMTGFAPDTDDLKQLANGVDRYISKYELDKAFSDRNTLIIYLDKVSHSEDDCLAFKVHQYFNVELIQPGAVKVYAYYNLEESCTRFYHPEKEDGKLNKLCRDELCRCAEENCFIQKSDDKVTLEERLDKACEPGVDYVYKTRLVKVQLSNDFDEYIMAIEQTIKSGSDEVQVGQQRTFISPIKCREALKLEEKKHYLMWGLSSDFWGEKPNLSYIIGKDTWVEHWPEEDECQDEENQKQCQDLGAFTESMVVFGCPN

The target of test [1] is C3b (UniProt P01024). The test is described as follows: C3b coated at 5 ug/mL, FHR1 at 10 ug/mL (Figure 3d).
Test [2] addresses C3b (UniProt P01024). The experiment in a line: C3b coated at 5 ug/mL, FHR1 at 10 ug/mL for 2 h, washed, then monocytes added.

B1: Recombinant factor H related protein 1 (FHR1), expressed in Pichia pastoris (other, human, UniProt Q03591 19-330, looked up)
chain: EATFCDFPKINHGILYDEEKYKPFSQVPTGEVFYYSCEYNFVSPSKSFWTRITCTEEGWSPTPKCLRLCFFPFVENGHSESSGQTHLEGDTVQIICNTGYRLQNNENNISCVERGWSTPPKCRSTDTSCVNPPTVQNAHILSRQMSKYPSGERVRYECRSPYEMFGDEEVMCLNGNWTEPPQCKDSTGKCGPPPPIDNGDITSFPLSVYAPASSVEYQCQNLYQLEGNKRITCRNGQWSEPPKCLHPCVISREIMENYNIALRWTAKQKLYLRTGESAEFVCKRGYRLSSRSHTLRTTCWDGKLEYPTCAKR
notes: also called CFHR1; Complement Factor H-Related Protein 1
Take B1: the binding result with C3b [1] and with C3b [2] was “binds” in each case.

The values above are taken from patent EP3837551B1 (Medizinische Hochschule Hannover, dated 2024).
